Experiment in all cases: co-IP; FLAG- and V5-tagged proteins co-expressed in HEK293T cells; lysed 48 h after transfection in IP buffer (1% Triton X-100, 10% glycerol, 50 mM Tris-HCl pH 7.4, 150 mM NaCl, 1 mM dithiothreitol, 1 mM EDTA); precipitated with anti-FLAG antibody; western blot with anti-V5 (or anti-A subunit) antibody
In general terms: Immunoblotting shows a protein as a band on a membrane.

Sequences of proteins named here, by UniProt entry; tags and fusion partners are left off. A change or cut given only in a name is not applied to a line headed by its entry.
UniProt Q9JHF5: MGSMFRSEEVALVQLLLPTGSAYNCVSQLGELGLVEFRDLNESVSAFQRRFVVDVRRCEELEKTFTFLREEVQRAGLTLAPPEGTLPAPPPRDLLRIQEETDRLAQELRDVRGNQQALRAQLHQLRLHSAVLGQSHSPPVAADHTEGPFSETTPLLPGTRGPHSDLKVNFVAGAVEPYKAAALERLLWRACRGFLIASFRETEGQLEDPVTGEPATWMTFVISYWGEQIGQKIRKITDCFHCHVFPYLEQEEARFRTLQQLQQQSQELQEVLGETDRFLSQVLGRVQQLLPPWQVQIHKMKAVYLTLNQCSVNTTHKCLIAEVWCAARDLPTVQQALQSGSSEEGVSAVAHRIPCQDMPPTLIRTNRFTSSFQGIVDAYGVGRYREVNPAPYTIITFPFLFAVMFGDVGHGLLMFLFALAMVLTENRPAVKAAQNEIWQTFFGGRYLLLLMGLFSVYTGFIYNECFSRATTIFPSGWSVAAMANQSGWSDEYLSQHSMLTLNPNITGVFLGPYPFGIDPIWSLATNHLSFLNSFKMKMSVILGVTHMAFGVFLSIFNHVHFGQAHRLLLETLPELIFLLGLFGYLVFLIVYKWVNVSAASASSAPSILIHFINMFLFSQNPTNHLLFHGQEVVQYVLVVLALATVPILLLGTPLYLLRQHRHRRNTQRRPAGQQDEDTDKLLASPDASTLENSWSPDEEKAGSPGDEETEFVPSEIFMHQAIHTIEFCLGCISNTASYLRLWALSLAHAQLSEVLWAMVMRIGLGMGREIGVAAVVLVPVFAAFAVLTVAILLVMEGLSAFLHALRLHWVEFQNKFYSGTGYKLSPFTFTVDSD

Assay [1] deals with FLAG-a3N deletion mutant 1-315 (UniProt Q9JHF5).
Assay [2] has as its target FLAG-tagged a3N (amino-terminal half of a3, amino acids 1-386) (UniProt Q9JHF5).
Assay [3] deals with FLAG-a3N deletion mutant 1-134 (UniProt Q9JHF5).
Assay [4] has as its target FLAG-tagged V-ATPase a3 subunit (full-length) (UniProt Q9JHF5).
The target in assay [5] is FLAG-a3N deletion mutant 1-213 (UniProt Q9JHF5).

No constants are given. Whether binding was seen depends on the method and setting. In cells and extracts the contact can be indirect. Binding calls can cover weak binding; strength is not graded here. Where a sequence is shown, tags or fusion partners need not be part of it.

B1: V5-tagged Ccz1 (protein, UniProt Q8C1Y8 1-480)
chain: MAAAAAGPGAWAAQEKQFPPALLSFFIYNPRFGPREGEEENKILFYHPNEVEKNEKIRNVGLCEAIVQFTRTFSPSKPAKSLHTQKNRQFFNEPEENFWMVMVVRNPIIEKQSKDGKAVVEYQEEELLDKVYSSVLQQCYSMYKLFNGTFLKAMEDGGVKLLKERLEKFFHRYLQTLHLQSCDLLDIFGGISFFPLDKMTYLKIQSFINRMEESLSVVKYTAFLYNDQLIWSGLEQDDMRILYKYLTTSLFPRHIEPELAGRDSPVRAEMPGNLQHYGRFLTGPLNLNDPEAKCRFPKIFVNTDDTYEELHLIVYKAMSAAVCFMIDASTPLTLDFCRRLDSIVGPQLTVLASDICEQFNINKRISGSEKEPQFKFIYFNHMNLAEKSTIHMRKTPSVSLTSVHPDLMKILGDINSDFTRADEDEEIIVKAMSDYWVVGKKSDQRELYVILSQKNANLIEVNEEVKKLCATQFNNIFFLD
Turning to B1, the binding entry in assay [1] is reported as “binds”; in assay [2] it was “binds”; in assay [3], “binds”; in assay [4], “binds”; in assay [5], “binds weakly”.

B2: V5-tagged Mon1A (protein, UniProt Q6PDG8 1-556)
chain: MAADMQRKRSSECPEGTLAPSNGQSVERAESPTPGLTQGTEPGAGQEGAMFVHTRSYEDLTELEDREASGDSPKECVGSPPPLATDMRQISQDFSELSTQLTGVARDLQEEMLPGSSEDWPEPQGAAGRGAATEPSQEGSTEGEEEDATEAWRLHQKHVFVLSEAGKPVYSRYGSEEALSSTMGVMVALVSFLEADKNAIRSIHADGYKVVFVRRSPLVLVAVARTRQSAQELAQELLYIYYQILSLLTGAQLSHIFQQKQNYDLRRLLSGSERITDNLLQLMARDPSFLMGAARCLPLAAAVRDTVSASLQQARARSLVFSILLAHNQLVALVRRKDQFLHPIDLHLLFNLISSSSSFREGEAWTPVCLPKFNAAGFFHAHISYLEPDTDLCLLLISTDREDFFAVSDCRRRFQERLRKRGTHLALREALRTPYYSVAQVGIPDLRHFLYKSKSSGLFTSPEIEAPYSSEEEQERLLGLYQYLHSRAHNASRPLKTIYYTGPNENLLAWVTGAFELYMCYSPLGTKASAVSAIHKLMRWIRKEEDRLFILTPLTY
As to B2, the binding entry in assay [1], in assay [2], in assay [3], in assay [4] and in assay [5] was “binds” in each case.

For the origin of these results see publication PMC9120031.
